Data published in PubChem BioAssay AID540276 (National Center for Advancing Translational Sciences (NCATS), 2011).
Values joined by “and” are separate entries in the source; they are usually repeats but may differ in a detail not shown here. Equal entries are not always repeated. Out of some 300,000 compounds screened, about 5,400 (1.8%) were called active. The inconclusive results got no clear call from the source; some entries with a clear call stand among them for comparison. Calls come from the whole dose curve; tested in HEK293 cells. Potencies of inconclusive entries are doubtful fits and often do not repeat.

Experiment: qHTS for inhibitors of binding or entry into cells for Marburg Virus
Conditions: Marburg virus pseudotyped entry inhibition, cell reporter; activity change, negative = inhibition: at 37.8 µM (top of the series) unless noted
% is set by controls: 0 for no effect and ±100 for the full control effect; potency is the fitted concentration of half-maximal effect.

| Structure (SMILES) | Potency | activity change, negative = inhibition |
| --- | --- | --- |
| COc1ccc(C(=O)NC2CCN(CC(=O)Nc3cccc(C)c3)CC2)cc1OC | inconclusive: 35.5 µM [inhibitor, single point] |  |
| Cc1cccc(C)c1NC(=O)/C(=C/c1ccco1)c1ccccc1 | inconclusive: 35.5 µM [inhibitor, partial curve, poor fit] |  |
| O=C(O)CCCCCNC(=O)Nc1ccc2c(c1)OCCO2 |  | inactive: 18.7% |
| COc1ccc(C(=O)NNC(=O)CSc2nc(C(C)C)nc3ccccc23)cc1 | inconclusive: 15.8 µM [inhibitor, partial curve, poor fit] |  |
| Cc1ccc(NS(=O)(=O)c2ccc(NC(=O)CSc3ccc(Cl)cc3)cc2)c(C)c1 | inconclusive: 35.5 µM [inhibitor, single point] |  |
| CCN(CC)CCn1c2c(c(SCC(=O)Nc3nc(C)cs3)nc1=O)CCC2 | inconclusive: 5.62 µM [activator, single point] |  |
| Cc1c(NC(=O)COC(=O)c2cc(-c3ccc(-c4ccccc4)cc3)nc3ccccc23)c(=O)n(-c2ccccc2)n1C | active: 0.58 µM |  |
| COc1cc(OC)c(NC(=O)Cn2cnc3sc(C)c(S(=O)(=O)N4CCN(C)CC4)c3c2=O)cc1Cl |  | inactive: -13.5% [at 46.1 µM] |
| Cc1ccc(-c2nc(-c3cccnc3)no2)c(C)c1 | inconclusive: 6.31 µM [activator, partial curve, poor fit] |  |
| c1ccc(CCn2nnnc2CN2CCC(n3nnc4ccccc43)CC2)cc1 |  | inactive: 5.69% |
| COc1ccc2nc3sc(C(=O)NCCCN4CCc5ccccc5C4)cc3cc2c1 | inconclusive: 25.9 µM [inhibitor, single point] |  |
| Cc1ccc(S(=O)(=O)c2nc(-c3ccco3)oc2SCC(C)C)cc1 |  | inactive: -26.3% [at 46.1 µM] |
| CN1CCC[C@H]1c1cccnc1 | inconclusive: 3.55 µM [activator, partial curve, poor fit] and inconclusive: 20.6 µM [activator, partial curve, poor fit] |  |
| c1ccc(-c2cnnc(N3CCCCC3)n2)cc1 | inconclusive: 1.78 µM [activator, full curve, poor fit] |  |
| Cc1ccc2[nH]c(=O)c(CN(CC3CCCO3)S(=O)(=O)c3c(C)ccc4nsnc34)cc2c1 (stereo unspecified) | inconclusive: 18.3 µM [inhibitor, partial curve, poor fit] |  |
| CCOC(=O)OC[C@H]1O[C@H](C#Cc2ccc(F)cc2F)C=C[C@@H]1OC(=O)OCC | inconclusive: 0.75 µM [activator, single point] |  |
| CC1CCCCN1C(=O)CSc1nc(C2CC2)nc2ccccc12 (stereo unspecified) | inconclusive: 15.8 µM [inhibitor, single point] |  |
| COCCN(C(=O)CCC(=O)Nc1cc(C)on1)C(C(=O)NC1CCCC1)c1ccc(C)cc1 (stereo unspecified) | inconclusive: 7.08 µM [inhibitor, partial curve, poor fit] |  |
| CN(c1ccccc1)c1nccc(=O)[nH]1 | inconclusive: 0.112 µM [inhibitor, partial curve, poor fit] |  |
| O=C(CCC1N=C2c3ccccc3N=C(SCc3ccc(Cl)cc3)N2C1=O)NCc1ccco1 (stereo unspecified) | inconclusive: 29.1 µM [inhibitor, single point] |  |
| COc1ccc(-c2oc(NC(=O)CCl)c(C#N)c2-c2ccc(OC)cc2)cc1 | inconclusive: 35.5 µM [inhibitor, single point] |  |
| O=C(NCc1ccc(F)cc1)c1cnccn1 |  | inactive: -8.14% [at 46.1 µM] |

6 compounds out of the list, arranged by molar mass, ascending:

| Structure (SMILES) | Potency | activity change, negative = inhibition |
| --- | --- | --- |
| O=C(NCc1ccc(F)cc1)c1cnccn1 |  | inactive: -8.14% [at 46.1 µM] |
| Cc1ccc(-c2nc(-c3cccnc3)no2)c(C)c1 | inconclusive: 6.31 µM [activator, partial curve, poor fit] |  |
| Cc1cccc(C)c1NC(=O)/C(=C/c1ccco1)c1ccccc1 | inconclusive: 35.5 µM [inhibitor, partial curve, poor fit] |  |
| CCOC(=O)OC[C@H]1O[C@H](C#Cc2ccc(F)cc2F)C=C[C@@H]1OC(=O)OCC | inconclusive: 0.75 µM [activator, single point] |  |
| COCCN(C(=O)CCC(=O)Nc1cc(C)on1)C(C(=O)NC1CCCC1)c1ccc(C)cc1 (stereo unspecified) | inconclusive: 7.08 µM [inhibitor, partial curve, poor fit] |  |
| COc1cc(OC)c(NC(=O)Cn2cnc3sc(C)c(S(=O)(=O)N4CCN(C)CC4)c3c2=O)cc1Cl |  | inactive: -13.5% [at 46.1 µM] |

(cont.)

| Structure (SMILES) | Potency | activity change, negative = inhibition |
| --- | --- | --- |
| CCOC(=O)c1[nH]c2ccccc2c1NC(=S)Nc1ccccc1 | inconclusive: 6.51 µM [activator, single point] |  |
| CC(C)(C)c1ccc(C(=O)Nc2cccc([N+](=O)[O-])c2)cc1 | inconclusive: 35.5 µM [inhibitor, partial curve, poor fit] |  |
| CC(=O)C1=C(O)C(=O)N(c2ccc(O)cc2)C1c1ccccc1Cl (stereo unspecified) | inconclusive: 12.6 µM [activator, partial curve] |  |
| Cc1ccc(CN(C)C(=O)c2cccc(S(=O)(=O)N3CCN(Cc4ccccc4)CC3)c2)o1 | inconclusive: 0.708 µM [activator, single point] |  |
| COC(=O)C(Cc1ccc(O)cc1)NC(=O)CCNC(=O)c1ccco1 (stereo unspecified) |  | inactive: 3.68% [at 46.1 µM] |
| COc1cccc(-c2ccc(NC(=O)C3CCCN(Cc4nccn4C)C3)cc2)c1 (stereo unspecified) | inconclusive: 35.5 µM [inhibitor, single point] |  |
| CCN(CC)S(=O)(=O)c1ccc(S(=O)(=O)Nc2ccc(C(=O)N3CCCC3)cc2)cc1 |  | inactive: -4.27% |
| COc1ccccc1NS(=O)(=O)c1cc([N+](=O)[O-])ccc1N/N=C/c1c(C)[nH]c2ccccc12 | inconclusive: 4.11 µM [inhibitor, partial curve, poor fit] |  |
| O=C1CC(N(CCc2ccccc2)C(=S)Nc2ccccc2)C(=O)N1c1ccc(Br)cc1 (stereo unspecified) | inconclusive: 14.1 µM [inhibitor, single point] |  |
| CCn1c(O)c(/C=C2\C=Nc3ccccc32)sc1=Nc1ccc(C)cc1 | inconclusive: 2.91 µM [inhibitor, full curve] |  |
| CN(c1ccc(C(=O)N2CCOCC2)cc1[N+](=O)[O-])C1CCCCC1 |  | inactive: 5.4% |
| Cc1cccc(NC(=O)c2ccc(N3CCCCC3)c([N+](=O)[O-])c2)n1 | inconclusive: 35.5 µM [inhibitor, single point] |  |
| NCC1CCN(c2nc3ccccc3c3c2CCCC3)CC1 | inconclusive: 35.5 µM [inhibitor, single point] |  |
| CS(=O)(=O)N1CCN(C(=O)c2cc(-c3ccncc3)nc3ccc(Cl)cc23)CC1 | inconclusive: 10 µM [inhibitor, single point] |  |
| Cc1ccc(O)c(CNc2cccc3cccnc23)c1 |  | inactive: -9.82% |
| Cc1cccc(/C(N)=N/OC(=O)c2ccco2)c1 | inconclusive: 22.4 µM [inhibitor, single point] |  |
| Clc1ccc(C(c2ccccc2)N2CCNCC2)cc1 (stereo unspecified) | inconclusive: 5.8 µM [inhibitor, full curve] |  |
| COc1ccc(CCNC(=O)C2CCN(C(=O)c3ccc(Cl)cc3)CC2)cc1 | inconclusive: 25.1 µM [inhibitor, single point] |  |
| COc1ccccc1C(=O)NCc1ccccc1 |  | inactive: 11.1% |
| CN1C(=O)NC(=O)[C@]2(Cc3ccccc3N3CCN(c4ccccc4)CC32)C1=O (stereo partly specified) |  | inactive: -1.24% |
| COc1ccc(N(Cc2cccs2)C(=O)COc2ccc(C(C)C)cc2)cc1 |  | inactive: -14.2% [at 46.1 µM] |
| NC(=O)c1ccc(NC(=O)Cc2csc(-c3ccccc3)n2)cc1 |  | inactive: 0.925% [at 46.1 µM] |

| Structure (SMILES) | Potency | activity change, negative = inhibition |
| --- | --- | --- |
| Cc1nnc(SCc2cccc([N+](=O)[O-])c2)o1 | inconclusive: 5.62 µM [activator, single point] |  |
| C[C@H](NC(=O)c1ccccc1)C(=O)Nc1nc(-c2ccccn2)cs1 | inconclusive: 17.8 µM [inhibitor, single point] |  |
| COc1cccc(NC(=O)Cc2cn(C)c3ccccc23)c1 | inconclusive: 22.4 µM [inhibitor, single point] |  |
| COc1cccc(C(=O)NC(=S)N2CCN(c3ccc(C(F)(F)F)cc3[N+](=O)[O-])CC2)c1 |  | inactive: 7.21% |
| COc1ccc(C(=O)Nc2ccccc2C(=O)N/N=C/c2ccco2)cc1 | inconclusive: 1.84 µM [inhibitor, partial curve, poor fit] |  |
| CCOc1ccc2nc(N3CCCC(C(=O)Nc4cccc(Cl)c4C)C3)sc2c1 (stereo unspecified) | inconclusive: 7.08 µM [activator, partial curve, poor fit] |  |
| CCOc1ccc(S(=O)(=O)N(C)c2ccc(OCC(=O)NCc3ccc(C(=O)OC)cc3)cc2)cc1 |  | inactive: 2.17% [at 46.1 µM] |
| O=c1cc(O)c2sc(Nc3cccc(C(F)(F)F)c3)nc2[nH]1 |  | inactive: 1.59% |
| CCOC(=O)C1=C(CNC2CCCCC2)NC(=O)NC1c1cc(C)ccc1C (stereo unspecified) | inconclusive: 14.1 µM [inhibitor, partial curve, poor fit] |  |
| CCOc1ccc2nc(NC(=O)c3cnccn3)sc2c1 | inconclusive: 1.26 µM [activator, single point] |  |
| CCc1cc2c(nc1CC)CCN(CCC(C)=NOCC[C@@H]1C=C[C@H](OC(C)=O)[C@@H](COC(C)=O)O1)C2 | inconclusive: 0.299 µM [inhibitor, partial curve, poor fit] |  |
| COc1ccc(NC(=O)CN(C)C(=O)c2cccc(S(=O)(=O)N3CCN(c4ccc(F)cc4)CC3)c2)cc1 |  | inactive: -1.42% |
| O=C(NCc1cccc(C(F)(F)F)c1)N1CCN(S(=O)(=O)c2ccccc2F)CC1 | inconclusive: 35.5 µM [inhibitor, partial curve, poor fit] |  |
| O=C(Cc1cccs1)NCc1ccncc1 |  | inactive: 18.9% |
| COc1ccc(CCNC(=O)C(C(=O)c2ccccc2)n2ccccc2=O)cc1OC (stereo unspecified) | inconclusive: 10 µM [activator, single point] |  |
| CCCC(C(=O)OCCN(CC)CC)(c1ccccc1)c1ccccc1 | active: 10 µM |  |
| COc1ccccc1N1CCN(Cc2c[nH]c3ccccc23)CC1 | inconclusive: 5.62 µM [activator, single point] |  |
| CCN(CC)S(=O)(=O)c1cccc(NC(=O)COc2ccc(C#N)cc2OC)c1 |  | inactive: -5.84% |
| CCn1cc(CN2CCCC(C(=O)Nc3ccc(-c4nc5ccccc5[nH]4)cc3)C2)c(C)n1 (stereo unspecified) | inconclusive: 11.2 µM [inhibitor, single point] |  |
| Clc1ccc(C2=Nn3c(Cn4nnc5ccccc54)nnc3SC2)cc1 |  | inactive: -25.8% |
| O=C(NCCS(=O)(=O)NCCc1ccccc1)c1ccccc1 | inconclusive: 10 µM [activator, partial curve, poor fit] |  |
| CN(C)/C=C/C(=O)/C=C/c1ccc(Cl)cc1 | inconclusive: 10 µM [inhibitor, partial curve] |  |
